Results published in PubChem BioAssay AID504375 (National Center for Advancing Translational Sciences (NCATS), 2011).
Out of some 1,600 compounds screened, about 25 (2%) were called active. Roughly 7% stayed inconclusive and do not appear here. Calls follow the shape of the dose curve; as a rule, active = well fitted inhibition curve with a large enough effect; inconclusive = small, poorly fitted or top-dose-only effect, or effect the other way; inactive = no such curve, though single readings can be large or run the other way. The list shows a part of the results.

Amino acid sequences for entries named in this document (tags omitted).
UniProt Q01196, whole entry, looked up: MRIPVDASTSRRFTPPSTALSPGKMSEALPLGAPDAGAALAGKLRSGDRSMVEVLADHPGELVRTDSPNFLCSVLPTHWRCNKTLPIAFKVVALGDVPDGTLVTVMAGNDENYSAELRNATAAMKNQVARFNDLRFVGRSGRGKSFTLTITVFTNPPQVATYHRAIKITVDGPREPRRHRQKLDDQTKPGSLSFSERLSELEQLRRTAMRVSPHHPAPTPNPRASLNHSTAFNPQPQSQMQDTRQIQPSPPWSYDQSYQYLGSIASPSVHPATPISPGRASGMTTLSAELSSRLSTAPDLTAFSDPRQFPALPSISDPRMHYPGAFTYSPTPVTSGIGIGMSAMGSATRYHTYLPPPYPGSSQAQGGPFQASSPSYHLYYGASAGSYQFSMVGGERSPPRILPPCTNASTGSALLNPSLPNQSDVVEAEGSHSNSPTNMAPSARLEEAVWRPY
UniProt Q13951, whole entry, looked up: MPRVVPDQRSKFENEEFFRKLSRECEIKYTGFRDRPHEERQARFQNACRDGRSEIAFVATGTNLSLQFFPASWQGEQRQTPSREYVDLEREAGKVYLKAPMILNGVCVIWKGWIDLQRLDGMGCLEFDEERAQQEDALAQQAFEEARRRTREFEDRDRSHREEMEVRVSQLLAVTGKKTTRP

biological target: Runt-related transcription factor 1 (Homo sapiens) + Core-binding factor subunit beta (Homo sapiens) (UniProt Q01196+Q13951); experiment: qHTS Assay for Compounds Blocking the Interaction Between CBF-beta and RUNX1 for the Treatment of Acute Myeloid Leukemia: Hit Validation with Orthogonal Assay; conditions: CBFbeta-RUNX1 binding orthogonal assay, biochemical; series mostly up to 41 µM; activity change, negative = inhibition: at the top concentration
Method in brief: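 This is an orthogonal TR-FRET assay. His6-CBF-beta and biotin-RUNX1 (30 nM each) were preincubated with compound for 30 min, then Tb-anti-His antibody (0.44 ng) and streptavidin-XL665 (5 nM) were added. The signal was read after 90 min.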
% is scaled to controls: 0 for no effect and ±100 for the full control effect.

Activity change, negative = inhibition, inactive:
COc1ccccc1N1C(=O)CC(Sc2ccccc2N)C1=O (centres undefined) 7.98%, CCCC1C2C(=O)N(c3cccc(C)c3)C(=O)C2ON1c1ccccc1 (centres undefined) -2.89%, Cc1cnc(NS(=O)(=O)c2ccccc2)c(Br)c1 2.42%, CC(C)(C)C(=O)Nc1nc(NC(=O)C(C)(C)C)nc(-c2ccccc2Cl)n1 -5.75%, Cc1oc(S(=O)(=O)N2CCCCC2)cc1NC(=O)Nc1ccc(F)cc1 -11.6%, Cc1[nH]c(N=Nc2ccccc2)nc1N=Nc1ccccc1 19.5%, CCc1sc(N)nc1-c1ccccc1 9.08% [at 22.1 µM], CCCc1ccc(OCc2ccccc2)c2c(=O)cc(C(=O)OCC)oc12 2.53%, CN(C)NC(=S)NC1CCS(=O)(=O)C1 (centres undefined) -3.06%, O=c1ccn(CCCBr)c(=O)[nH]1 8.4%, CCCN(c1ccc(C)cc1)c1nc(=O)c2cccnc2s1 3.24%, Cc1cc(NC(=O)CSc2nc3ccccc3[nH]2)n(-c2ccccc2)n1 1.11%, Cc1cc(C)nc(S/C=C/C(=O)c2ccccc2F)n1 12%, CCOC(=O)COc1ccc2c(=O)cc(-c3ccccc3)oc2c1 5.15%, O=C(NCCc1ccc(Cl)cc1)Nc1ccc(Cl)cc1 3.98%, O=C(CCl)NC1(C(F)(F)F)C(=O)Nc2c1c(=O)[nH]c(=O)n2-c1ccccc1 (centres undefined) -7.72%, c1ccc(CSc2nc3ncncc3[nH]2)cc1 -4.69%, C=CCn1c(-c2sc3nc(C)cc(C)c3c2N)n[nH]c1=S 34.3%, O=C(/C=C/c1cn(CC(O)CN2CCOCC2)c2ccccc12)c1cccs1 (centres undefined) 4.2%, COc1cc(/C=N\NC(=O)CNC(=O)C(c2ccccc2)c2ccccc2)ccc1O 11.9%, Cc1c([N+](=O)[O-])c(C/C=N/O)nn1C 17.1%, CCCN(CCC)c1ccc(/C=C/c2ccc3cc(OCC)ccc3n2)cc1 -0.232%, N#Cc1c(Cl)cccc1N1CCC(C(N)=O)CC1 -3.61%, Cn1c(=O)c([N+](=O)[O-])c(NCC2CCCO2)c2ccccc21 (centres undefined) 28.8%, CC(C)CC(=O)NC(=S)Nc1ccc(CN2CCOCC2)cc1 5.93%, CC1Cc2cc(/C=C3/SC(=S)N(C)C3=O)ccc2O1 (centres undefined) 12%, Cc1sc(NC(=O)CN2CCOCC2)c(C#N)c1C -16.3%, Cc1ccc(N2CC(c3nc4ccccc4n3C)CC2=O)cc1 (centres undefined) 16.9%, COc1ccc(Oc2ncccc2[N+](=O)[O-])cc1 49.1%, COC(=O)c1ccc(OC)c(OC)c1Cl 5.96%, Cc1ccc(N/N=C(\C#N)C(=N)N2CCCCC2)cc1 59.2%, Cc1cc(O)c(C(C)C)cc1N=Cc1ccccc1O 5.04%, COC(=O)c1sccc1NC(=S)Nc1ccc(C)cc1 -22.9%, Cc1ccccc1C1NC(c2ccccc2C)C([N+](=O)[O-])C(C)(C)C1[N+](=O)[O-] (centres undefined) 15%
